Here are results for one molecule from patent publication US20240158370A1, “CK1 alpha AND DUAL CK1 alpha / GSPT1 DEGRADING COMPOUNDS” (Innovo Therapeutics, Inc., priority 2022, published 2024).

By UniProt entry, the sequences of proteins in these tests, tags left out.
UniProt P48729, whole entry: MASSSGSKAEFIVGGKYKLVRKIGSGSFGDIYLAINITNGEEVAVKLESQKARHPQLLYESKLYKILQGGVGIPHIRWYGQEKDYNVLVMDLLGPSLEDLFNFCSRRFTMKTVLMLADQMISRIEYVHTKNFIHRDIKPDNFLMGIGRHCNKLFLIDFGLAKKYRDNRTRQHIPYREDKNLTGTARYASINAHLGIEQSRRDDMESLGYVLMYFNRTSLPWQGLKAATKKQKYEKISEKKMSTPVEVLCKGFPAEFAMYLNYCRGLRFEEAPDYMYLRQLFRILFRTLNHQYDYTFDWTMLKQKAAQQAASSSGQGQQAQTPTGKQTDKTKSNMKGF
UniProt Q96SW2, whole entry: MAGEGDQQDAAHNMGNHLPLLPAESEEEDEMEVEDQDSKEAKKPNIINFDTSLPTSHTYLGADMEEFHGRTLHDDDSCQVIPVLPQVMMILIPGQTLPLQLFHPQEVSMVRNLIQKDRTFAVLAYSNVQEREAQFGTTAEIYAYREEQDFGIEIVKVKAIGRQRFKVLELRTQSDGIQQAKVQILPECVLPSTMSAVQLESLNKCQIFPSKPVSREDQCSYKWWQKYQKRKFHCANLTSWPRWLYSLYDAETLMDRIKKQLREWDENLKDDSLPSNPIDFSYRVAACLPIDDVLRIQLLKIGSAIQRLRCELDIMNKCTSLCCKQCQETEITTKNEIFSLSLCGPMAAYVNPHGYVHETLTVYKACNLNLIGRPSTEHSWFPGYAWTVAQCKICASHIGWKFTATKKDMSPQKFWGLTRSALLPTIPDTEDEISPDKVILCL
UniProt P15170, whole entry: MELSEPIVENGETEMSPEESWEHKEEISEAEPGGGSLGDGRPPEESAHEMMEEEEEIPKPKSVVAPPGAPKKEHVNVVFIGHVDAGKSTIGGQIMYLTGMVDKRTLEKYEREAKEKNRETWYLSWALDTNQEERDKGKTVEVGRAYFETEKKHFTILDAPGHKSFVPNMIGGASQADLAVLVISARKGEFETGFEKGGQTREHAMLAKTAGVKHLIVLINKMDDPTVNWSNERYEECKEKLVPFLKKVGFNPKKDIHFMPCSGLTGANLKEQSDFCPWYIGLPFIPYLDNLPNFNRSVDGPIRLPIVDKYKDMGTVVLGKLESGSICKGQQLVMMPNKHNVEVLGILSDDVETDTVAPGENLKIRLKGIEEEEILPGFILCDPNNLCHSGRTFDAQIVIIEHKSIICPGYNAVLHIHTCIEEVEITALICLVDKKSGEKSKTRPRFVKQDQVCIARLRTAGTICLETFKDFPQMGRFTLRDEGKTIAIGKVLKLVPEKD
UniProt Q16531, whole entry partner: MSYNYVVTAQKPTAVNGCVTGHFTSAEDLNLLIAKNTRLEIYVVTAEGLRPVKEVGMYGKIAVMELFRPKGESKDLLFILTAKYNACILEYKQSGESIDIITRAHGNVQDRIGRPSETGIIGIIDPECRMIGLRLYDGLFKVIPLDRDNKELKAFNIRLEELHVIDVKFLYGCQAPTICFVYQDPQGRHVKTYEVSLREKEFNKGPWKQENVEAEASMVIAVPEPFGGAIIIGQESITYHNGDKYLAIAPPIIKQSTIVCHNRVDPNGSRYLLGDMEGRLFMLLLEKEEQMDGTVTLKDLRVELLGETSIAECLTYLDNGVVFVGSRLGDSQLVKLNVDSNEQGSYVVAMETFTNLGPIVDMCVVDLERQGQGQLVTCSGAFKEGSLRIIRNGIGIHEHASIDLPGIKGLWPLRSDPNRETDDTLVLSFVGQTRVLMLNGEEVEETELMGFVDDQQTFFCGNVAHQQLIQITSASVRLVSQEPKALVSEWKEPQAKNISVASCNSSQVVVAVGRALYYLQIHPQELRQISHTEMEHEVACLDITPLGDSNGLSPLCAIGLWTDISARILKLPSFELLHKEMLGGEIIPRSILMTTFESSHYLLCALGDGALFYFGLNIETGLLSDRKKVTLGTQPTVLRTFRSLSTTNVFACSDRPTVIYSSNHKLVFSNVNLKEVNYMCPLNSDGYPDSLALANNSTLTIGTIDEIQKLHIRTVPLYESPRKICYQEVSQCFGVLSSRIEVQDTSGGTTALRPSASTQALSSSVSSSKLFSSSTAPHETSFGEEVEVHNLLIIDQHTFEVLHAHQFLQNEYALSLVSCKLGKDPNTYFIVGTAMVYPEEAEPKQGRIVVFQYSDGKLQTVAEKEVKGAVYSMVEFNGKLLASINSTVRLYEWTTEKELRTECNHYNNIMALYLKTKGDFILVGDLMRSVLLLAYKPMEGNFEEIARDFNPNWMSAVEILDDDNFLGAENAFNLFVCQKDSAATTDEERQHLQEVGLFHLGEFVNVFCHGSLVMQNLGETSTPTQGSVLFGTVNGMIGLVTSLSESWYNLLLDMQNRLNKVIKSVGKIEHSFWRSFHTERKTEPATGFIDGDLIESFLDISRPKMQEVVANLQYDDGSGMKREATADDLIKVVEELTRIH

By DC50 is commonly meant the concentration giving 50% degradation.

The structures given here were assigned with low confidence; some may be wrong.

The target in one assay is CK1α (Homo sapiens, UniProt P48729+Q96SW2). The assay can be described thus: HiBiT degradation assay, CK1α, Procedure A. In general terms: With HiBiT, luminescence reflects the tagged protein that the partner subunit can reach.
For the next assay, the target named is GSPT1 (Homo sapiens, UniProt P15170+Q96SW2). The assay can be described thus: HiBiT degradation assay, GSPT1, Procedure A.

With `Cc1ccc(-c2c(-c3ccc4c(c3)CN(C3CCC(=O)NC3=O)C4=O)ncn2C)o1` (stereo not shown), the DC50 is less than 25 nM on CK1α (read-out: CK1α DC50, six hours) and less than 25 nM at GSPT1 (read-out: GSPT1 DC50, six hours). In addition, the “CK1α Ymin” value on CK1α (six hours) is reported as “C (C = 0-10% remaining)”. Moreover, the “GSPT1 Ymin” value at GSPT1 (six hours) is listed as “F (F = >75-100% remaining)”.
